# Experimental data as given in paper PMC6224500.
# Chains of the proteins cited; added tags and fusions are not shown. Lines headed by an entry give the natural chain unless they say otherwise; changes in a name come on top.
# UniProt C8V7D1: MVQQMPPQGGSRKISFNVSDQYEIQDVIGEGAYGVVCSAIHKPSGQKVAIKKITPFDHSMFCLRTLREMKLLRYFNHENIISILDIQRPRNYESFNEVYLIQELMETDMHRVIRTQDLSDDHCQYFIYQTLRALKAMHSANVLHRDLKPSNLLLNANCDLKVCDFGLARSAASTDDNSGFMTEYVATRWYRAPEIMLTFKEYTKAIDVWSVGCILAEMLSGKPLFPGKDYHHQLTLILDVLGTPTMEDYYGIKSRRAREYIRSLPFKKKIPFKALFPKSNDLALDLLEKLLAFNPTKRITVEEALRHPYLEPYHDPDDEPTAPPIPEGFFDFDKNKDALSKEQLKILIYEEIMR
# No constants are given. Whether binding was seen depends on the method and setting. In cells and extracts the contact can be indirect. These calls come from enrichment with a bait or labelling near it, and not all partners need be listed.
# Molecular target: MpkB (MAPK of the pheromone module) (Aspergillus nidulans) (UniProt C8V7D1)
# Experiment: affinity purification with mass spectrometry; Tandem Affinity Purification of TAP-tagged bait expressed under its native promoter in A. nidulans, vegetative cultures grown for 24 hours, LC-MS of co-purified proteins; 2 biological replicates; wild type background and hamE deletion background
binder,measurement,value
"SteA transcription factor (protein, UniProt O74252 1-692) MYSQHGAPMAPPQKPETFMLSNEAQQSLPHDAQVALQQVDNLKYFLLSAPVDWQPDQLIRRFLLPTGDYISCVLWSNLFHISGTDIVRCLAFRFQAFGRPVKNSKKFEEGIFSDLRNLKAGTDATLEEPKSPFLDFLYKNNCIRTQKKQKVFYWYSVPHDRLFLDALERDLKREKMGQEATTVAVSEPALSFEFDSSQSLYEQLTKAQQANSSSFAAHASTTYGQSASPVVRTVDAMPPPQMAPQMAPPSIPLLTDESANSQMYTSIPMPNPIPQNLIKREADYGAIQYDRNGMPIARIHQRHSSMPTFVEYSPAPSFVSSQYEDYSNRGLSFEPVTPPQHSSHIGPEPAYIANEDTGLYTAIPEMSTGSGFNPMMHLPPSNLASAHFPTPARTFHSNVYSVLEGSPTYKQRRRRSSIPPGAANPVTTGTHSPAPALSYAAHKPSDLRRSVSSSVAPGDTDDSRHESLHRSVNSTYTATLPQKNLMHEMSRNGTPLSSVGEHREQSSIPLTQAEDLPALPANGTVESGAPNGVGHKSDRYATGPVRRARSATMMELGPYPQKSHSCPIPSCGRLFKRLEHLKRHVRTHTQERPYPCPYCNKAFSRSDNLAQHRRIHEAQQDGQPLVHEDDLENDDNESVSHDEDESPSESVHPAVPGVHGMTSMPSSVALQSTMGSMMGSHMIAPQLLQQQI",binding,binds
